# The other results are listed elsewhere or left out.
# The chains behind the UniProt entries cited, without tags or fusion partners. Where a name states a change or a piece, a line headed by the entry shows the natural chain unless it says otherwise.
# UniProt Q8IY22: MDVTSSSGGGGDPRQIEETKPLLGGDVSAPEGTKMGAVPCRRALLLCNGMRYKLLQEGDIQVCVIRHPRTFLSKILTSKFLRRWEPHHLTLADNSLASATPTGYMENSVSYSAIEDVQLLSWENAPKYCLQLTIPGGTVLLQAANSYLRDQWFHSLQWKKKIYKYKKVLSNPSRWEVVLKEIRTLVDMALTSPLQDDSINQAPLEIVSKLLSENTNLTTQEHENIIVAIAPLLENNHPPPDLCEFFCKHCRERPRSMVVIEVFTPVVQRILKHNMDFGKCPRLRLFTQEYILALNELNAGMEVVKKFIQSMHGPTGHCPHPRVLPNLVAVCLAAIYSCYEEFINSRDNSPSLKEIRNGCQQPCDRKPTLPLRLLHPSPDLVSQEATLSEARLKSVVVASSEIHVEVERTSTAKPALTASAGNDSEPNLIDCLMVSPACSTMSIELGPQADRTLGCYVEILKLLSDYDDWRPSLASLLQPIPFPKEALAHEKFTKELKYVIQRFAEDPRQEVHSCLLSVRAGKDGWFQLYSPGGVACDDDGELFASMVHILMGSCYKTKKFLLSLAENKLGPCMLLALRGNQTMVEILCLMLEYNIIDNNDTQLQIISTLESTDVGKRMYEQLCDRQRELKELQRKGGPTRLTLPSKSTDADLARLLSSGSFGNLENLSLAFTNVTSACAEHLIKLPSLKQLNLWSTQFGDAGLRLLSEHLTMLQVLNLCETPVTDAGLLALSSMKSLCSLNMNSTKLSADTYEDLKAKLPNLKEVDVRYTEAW
# UniProt P09496: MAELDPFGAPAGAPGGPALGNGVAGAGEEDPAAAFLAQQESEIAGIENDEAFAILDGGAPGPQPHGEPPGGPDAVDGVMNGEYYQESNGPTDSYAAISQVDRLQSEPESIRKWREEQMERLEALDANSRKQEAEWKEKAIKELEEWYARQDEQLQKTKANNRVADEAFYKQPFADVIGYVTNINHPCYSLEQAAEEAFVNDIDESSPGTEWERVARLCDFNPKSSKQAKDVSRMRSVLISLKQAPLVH
# UniProt P09497: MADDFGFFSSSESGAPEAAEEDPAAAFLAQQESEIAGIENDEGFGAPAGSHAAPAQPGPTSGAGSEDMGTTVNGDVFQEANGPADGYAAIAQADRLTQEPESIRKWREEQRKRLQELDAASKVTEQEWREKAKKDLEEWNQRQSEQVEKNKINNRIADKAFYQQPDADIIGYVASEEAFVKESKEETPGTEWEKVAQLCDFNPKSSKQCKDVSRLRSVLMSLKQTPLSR
# UniProt P06732: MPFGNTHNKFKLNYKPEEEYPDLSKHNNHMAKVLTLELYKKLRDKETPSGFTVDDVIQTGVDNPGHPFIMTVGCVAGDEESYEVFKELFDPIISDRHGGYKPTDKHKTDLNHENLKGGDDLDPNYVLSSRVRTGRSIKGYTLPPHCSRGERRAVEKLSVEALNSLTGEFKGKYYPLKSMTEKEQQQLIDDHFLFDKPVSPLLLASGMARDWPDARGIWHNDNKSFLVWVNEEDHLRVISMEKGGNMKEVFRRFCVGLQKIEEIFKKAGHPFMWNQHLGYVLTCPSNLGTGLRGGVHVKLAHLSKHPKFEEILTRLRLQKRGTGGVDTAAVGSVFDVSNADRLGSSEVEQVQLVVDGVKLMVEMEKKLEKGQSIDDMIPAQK
# UniProt Q9BWS9: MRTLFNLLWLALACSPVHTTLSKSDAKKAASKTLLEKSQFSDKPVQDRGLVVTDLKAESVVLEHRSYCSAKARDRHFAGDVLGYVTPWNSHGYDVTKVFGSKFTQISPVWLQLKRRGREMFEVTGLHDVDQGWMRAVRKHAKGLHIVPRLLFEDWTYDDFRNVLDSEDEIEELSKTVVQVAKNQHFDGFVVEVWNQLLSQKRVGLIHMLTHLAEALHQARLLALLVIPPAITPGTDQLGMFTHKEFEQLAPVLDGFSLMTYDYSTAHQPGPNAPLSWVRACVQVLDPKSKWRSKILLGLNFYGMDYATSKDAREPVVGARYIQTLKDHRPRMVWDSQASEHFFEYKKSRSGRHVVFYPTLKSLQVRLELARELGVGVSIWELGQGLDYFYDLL
# UniProt Q86WJ1: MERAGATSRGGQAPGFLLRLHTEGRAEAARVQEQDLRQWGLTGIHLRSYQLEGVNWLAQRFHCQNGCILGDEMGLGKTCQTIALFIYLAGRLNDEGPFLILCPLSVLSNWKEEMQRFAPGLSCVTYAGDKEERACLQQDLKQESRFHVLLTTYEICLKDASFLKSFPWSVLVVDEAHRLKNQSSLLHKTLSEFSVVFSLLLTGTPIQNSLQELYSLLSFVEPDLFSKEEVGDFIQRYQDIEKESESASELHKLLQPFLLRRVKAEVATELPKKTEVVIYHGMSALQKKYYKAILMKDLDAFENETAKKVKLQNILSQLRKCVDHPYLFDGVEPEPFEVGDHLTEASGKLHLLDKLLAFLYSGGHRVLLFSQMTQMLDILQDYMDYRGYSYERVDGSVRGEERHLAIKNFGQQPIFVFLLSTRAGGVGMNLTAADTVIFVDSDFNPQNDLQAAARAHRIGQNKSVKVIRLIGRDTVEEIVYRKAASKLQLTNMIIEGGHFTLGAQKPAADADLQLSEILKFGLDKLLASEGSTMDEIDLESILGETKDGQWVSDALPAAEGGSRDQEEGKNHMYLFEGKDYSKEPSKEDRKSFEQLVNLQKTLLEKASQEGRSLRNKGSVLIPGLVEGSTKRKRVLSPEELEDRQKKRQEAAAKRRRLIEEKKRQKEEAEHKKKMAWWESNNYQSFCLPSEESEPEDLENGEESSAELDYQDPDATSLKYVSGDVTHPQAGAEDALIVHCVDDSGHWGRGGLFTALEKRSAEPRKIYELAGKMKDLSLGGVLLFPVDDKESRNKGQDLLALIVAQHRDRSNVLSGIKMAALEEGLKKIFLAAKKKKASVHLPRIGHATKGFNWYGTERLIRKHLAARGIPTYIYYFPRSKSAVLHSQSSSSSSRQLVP
# UniProt Q8N5K1: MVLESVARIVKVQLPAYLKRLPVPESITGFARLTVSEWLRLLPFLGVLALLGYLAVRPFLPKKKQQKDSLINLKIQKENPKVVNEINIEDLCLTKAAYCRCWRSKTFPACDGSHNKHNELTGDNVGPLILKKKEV
# UniProt Q9H078: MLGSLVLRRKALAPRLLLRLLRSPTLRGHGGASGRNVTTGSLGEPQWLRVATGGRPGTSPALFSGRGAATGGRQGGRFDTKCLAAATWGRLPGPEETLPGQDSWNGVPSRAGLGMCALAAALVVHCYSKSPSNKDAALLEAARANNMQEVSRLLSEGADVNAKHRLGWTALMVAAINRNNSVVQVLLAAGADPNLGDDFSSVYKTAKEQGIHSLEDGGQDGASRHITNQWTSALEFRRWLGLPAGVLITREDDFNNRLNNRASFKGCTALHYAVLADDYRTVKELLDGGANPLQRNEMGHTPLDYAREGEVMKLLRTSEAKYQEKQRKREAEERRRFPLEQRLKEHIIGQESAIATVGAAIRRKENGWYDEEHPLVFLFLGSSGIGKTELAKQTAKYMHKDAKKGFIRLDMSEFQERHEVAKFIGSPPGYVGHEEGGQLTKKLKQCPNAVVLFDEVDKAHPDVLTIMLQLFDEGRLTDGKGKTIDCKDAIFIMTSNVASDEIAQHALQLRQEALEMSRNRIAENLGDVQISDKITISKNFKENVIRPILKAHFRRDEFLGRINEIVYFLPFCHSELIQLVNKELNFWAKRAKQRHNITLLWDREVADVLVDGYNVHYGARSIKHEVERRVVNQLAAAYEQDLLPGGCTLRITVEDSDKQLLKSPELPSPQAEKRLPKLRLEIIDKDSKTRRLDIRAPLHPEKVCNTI
# UniProt O75153: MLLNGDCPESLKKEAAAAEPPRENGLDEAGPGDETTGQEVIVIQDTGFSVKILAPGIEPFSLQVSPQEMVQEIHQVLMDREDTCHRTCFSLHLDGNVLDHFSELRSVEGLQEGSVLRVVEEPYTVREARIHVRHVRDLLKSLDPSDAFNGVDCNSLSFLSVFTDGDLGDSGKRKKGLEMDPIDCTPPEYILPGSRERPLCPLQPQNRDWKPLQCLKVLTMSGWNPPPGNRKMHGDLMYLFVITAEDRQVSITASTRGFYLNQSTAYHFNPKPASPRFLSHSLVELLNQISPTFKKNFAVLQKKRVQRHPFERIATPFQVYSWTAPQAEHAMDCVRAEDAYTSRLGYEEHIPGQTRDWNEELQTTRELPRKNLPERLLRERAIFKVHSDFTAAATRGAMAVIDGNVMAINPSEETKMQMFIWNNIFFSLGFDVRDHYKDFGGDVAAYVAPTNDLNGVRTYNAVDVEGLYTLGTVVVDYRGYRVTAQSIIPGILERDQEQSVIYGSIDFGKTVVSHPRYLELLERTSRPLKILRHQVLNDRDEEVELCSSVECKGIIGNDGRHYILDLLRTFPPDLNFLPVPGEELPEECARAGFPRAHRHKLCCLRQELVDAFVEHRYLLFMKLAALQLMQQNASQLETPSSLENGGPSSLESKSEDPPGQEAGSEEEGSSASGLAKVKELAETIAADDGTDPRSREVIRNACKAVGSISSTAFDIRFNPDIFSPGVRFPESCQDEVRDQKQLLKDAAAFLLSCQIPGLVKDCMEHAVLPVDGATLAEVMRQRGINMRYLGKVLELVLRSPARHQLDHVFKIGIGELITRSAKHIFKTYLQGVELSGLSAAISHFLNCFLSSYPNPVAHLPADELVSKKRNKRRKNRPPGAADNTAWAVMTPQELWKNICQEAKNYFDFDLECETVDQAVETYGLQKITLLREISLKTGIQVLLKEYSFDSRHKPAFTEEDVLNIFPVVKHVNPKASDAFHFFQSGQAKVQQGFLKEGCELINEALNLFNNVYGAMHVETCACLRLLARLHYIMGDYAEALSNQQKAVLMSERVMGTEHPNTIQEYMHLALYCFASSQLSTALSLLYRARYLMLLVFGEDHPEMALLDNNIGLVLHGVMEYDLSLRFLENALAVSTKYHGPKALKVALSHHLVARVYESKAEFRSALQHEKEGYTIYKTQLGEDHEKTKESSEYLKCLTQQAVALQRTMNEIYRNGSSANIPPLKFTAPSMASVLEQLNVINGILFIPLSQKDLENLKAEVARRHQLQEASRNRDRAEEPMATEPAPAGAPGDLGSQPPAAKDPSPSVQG
# UniProt Q9UHD1: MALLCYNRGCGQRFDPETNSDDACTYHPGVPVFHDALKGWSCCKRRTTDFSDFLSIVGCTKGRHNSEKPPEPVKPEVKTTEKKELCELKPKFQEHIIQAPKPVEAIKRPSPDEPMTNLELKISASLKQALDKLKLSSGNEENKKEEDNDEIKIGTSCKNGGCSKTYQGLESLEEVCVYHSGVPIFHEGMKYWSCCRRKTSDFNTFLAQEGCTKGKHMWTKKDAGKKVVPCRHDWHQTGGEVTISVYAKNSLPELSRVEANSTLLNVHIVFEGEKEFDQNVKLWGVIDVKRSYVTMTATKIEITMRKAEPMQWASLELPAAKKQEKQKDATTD
# UniProt P51797: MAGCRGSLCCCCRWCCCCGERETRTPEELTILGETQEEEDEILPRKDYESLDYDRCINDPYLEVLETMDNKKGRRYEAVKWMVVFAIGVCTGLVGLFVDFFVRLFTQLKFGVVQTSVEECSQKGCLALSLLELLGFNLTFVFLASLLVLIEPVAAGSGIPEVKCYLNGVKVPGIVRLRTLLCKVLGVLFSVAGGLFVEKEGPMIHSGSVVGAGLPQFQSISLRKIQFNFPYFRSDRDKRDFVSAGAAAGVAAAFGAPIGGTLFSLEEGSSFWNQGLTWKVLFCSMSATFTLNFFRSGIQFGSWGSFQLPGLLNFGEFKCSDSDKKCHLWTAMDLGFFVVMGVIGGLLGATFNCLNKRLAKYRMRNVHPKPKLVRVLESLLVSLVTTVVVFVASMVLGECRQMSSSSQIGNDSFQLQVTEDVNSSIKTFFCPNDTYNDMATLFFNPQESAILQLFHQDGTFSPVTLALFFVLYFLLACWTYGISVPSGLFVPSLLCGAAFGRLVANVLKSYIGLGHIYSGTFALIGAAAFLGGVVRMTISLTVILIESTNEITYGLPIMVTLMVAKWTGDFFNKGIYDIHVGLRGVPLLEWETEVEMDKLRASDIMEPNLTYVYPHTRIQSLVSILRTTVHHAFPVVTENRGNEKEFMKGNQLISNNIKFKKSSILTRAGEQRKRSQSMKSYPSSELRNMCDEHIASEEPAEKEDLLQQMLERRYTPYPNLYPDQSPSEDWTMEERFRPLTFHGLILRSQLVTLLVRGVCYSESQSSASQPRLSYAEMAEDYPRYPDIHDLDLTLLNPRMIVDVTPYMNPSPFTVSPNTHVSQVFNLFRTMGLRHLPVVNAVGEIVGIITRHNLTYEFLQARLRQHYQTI
# UniProt Q9BW66: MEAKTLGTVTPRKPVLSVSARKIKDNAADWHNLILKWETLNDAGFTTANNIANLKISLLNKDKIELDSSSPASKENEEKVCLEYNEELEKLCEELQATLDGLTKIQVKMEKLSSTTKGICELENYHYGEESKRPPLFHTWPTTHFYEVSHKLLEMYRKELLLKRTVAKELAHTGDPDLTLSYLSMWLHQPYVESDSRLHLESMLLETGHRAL
# Experiments:
# Assay in all cases: log2 fold change, soluble protein after heating vs DMSO (PISA); higher = thermal stabilisation; K562 lysate, 10 uM; active = over 0.2 and 3.5 SD of the protein, either way, in both replicates (recomputed)
# [1] = compound: C1=CC=C(C=C1)[C@H](COC2=CC3=C(C=C2)NC(=O)N3)NC(=O)C4=CC=CN(C4=O)CC5=CC(=C(C=C5)F)F
# Method in brief: (§1)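 Log-two fold change in thermal stability relative to solvent controls is reported from duplicates. For each sample, crude K562 extract from dounce-homogenised pellets in PBS pH 7.4 with 1 mM MgCl2, at 1 mg/mL protein, was treated with 10 μM compound for 30 min. Aliquots heated for 3 min across 48°C-58°C were pooled, brought to 0.5% NP-40 at 4°C and cleared at 21,000xg for 90 min. The supernatant was quantified by TMTpro 16plex LC-MS/MS with channel sums equalised.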
# [2] = compound: CC1=C(SC2=C1C(=N[C@H](C3=NN=C(N32)C)CC(=O)N)C4=CC=C(C=C4)Cl)C
# Method in brief: as §1
# [3] = compound: CC1=C2C(=CC=C1)N=C(N(C2=O)C3=CC=CC=C3C)CN4C=NC5=C(N=CN=C54)N
# Method in brief: as §1
# [4] = compound: Cc1sc2c(c1C)C(c1ccc(Cl)cc1)=N[C@@H](CC(=O)OC(C)(C)C)c1nnc(C)n1-2
# Method in brief: as §1
# [5] = compound: c1ccc([C@@H]2C[C@H]2NC2CCNCC2)cc1
# Method in brief: as §1
Target,log2 fold change [1],log2 fold change [2],log2 fold change [3],log2 fold change [4],log2 fold change [5]
CMIP (UniProt Q8IY22),inactive: -0.012,inactive: -0.006,inactive: -0.002,inactive: -0.029,inactive: 0.032
CMBL (UniProt Q96DG6),inactive: -0.01,inactive: -0.011,inactive: -0.027,inactive: -0.041,inactive: -0.078
CLTA isoform 2 (UniProt P09496),inactive: -0.005,inactive: -0.05,inactive: -0.147,inactive: -0.008,
CLTB isoform 2 (UniProt P09497),inactive: 0.026,inactive: -0.037,inactive: -0.024,inactive: -0.043,inactive: -0.017
CKAP2 (UniProt Q8WWK9),inactive: 0.052,inactive: 0.066,inactive: 0.001,inactive: -0.003,inactive: -0.021
CKM (UniProt P06732),inactive: 0.008,inactive: -0.027,inactive: -0.109,inactive: -0.169,inactive: 0
CHKB (UniProt Q9Y259),inactive: -0.056,inactive: 0.007,inactive: 0.047,inactive: -0.034,inactive: -0.05
CHID1 (UniProt Q9BWS9),inactive: 0.009,inactive: 0.027,inactive: 0.005,inactive: -0.029,inactive: 0.025
CLASP1 (UniProt Q7Z460),inactive: -0.019,inactive: 0.011,inactive: 0.022,inactive: -0.026,inactive: -0.007
CHD1L (UniProt Q86WJ1),inactive: -0.012,inactive: 0.036,inactive: 0.037,inactive: -0.009,inactive: 0.052
CISD2 (UniProt Q8N5K1),inactive: 0.022,inactive: -0.015,inactive: -0.003,inactive: -0.009,inactive: -0.017
CIAO2B (UniProt Q9Y3D0),inactive: 0.01,inactive: 0.04,inactive: -0.01,inactive: 0.054,
CIC (UniProt I3L1Q4),inactive: 0.006,inactive: 0.225,,,
CMSS1 (UniProt Q9BQ75),inactive: 0.035,inactive: -0.069,inactive: -0.017,inactive: -0.023,inactive: 0.106
CLPB isoform 2 (UniProt Q9H078),inactive: -0.031,inactive: -0.012,inactive: 0,inactive: 0.094,inactive: 0.079
CHD4 isoform 2 (UniProt Q14839),inactive: 0,inactive: 0.003,inactive: 0.029,inactive: 0.021,inactive: 0.009
CHCHD1 (UniProt Q96BP2),inactive: -0.026,inactive: 0.024,inactive: -0.04,inactive: -0.091,active: 0.627
CIT isoform 4 (UniProt O14578),inactive: -0.023,inactive: 0.071,inactive: 0.021,inactive: 0.007,inactive: -0.001
CLN6 (UniProt Q9NWW5),inactive: 0.067,inactive: -0.185,inactive: 0.022,inactive: -0.105,
CLUH (UniProt O75153),inactive: 0.03,inactive: 0.008,inactive: 0.021,inactive: -0.02,inactive: -0.058
CHORDC1 (UniProt Q9UHD1),inactive: 0.025,inactive: 0.006,inactive: -0.01,inactive: 0.017,inactive: 0.037
CHD6 (UniProt Q8TD26),inactive: -0.05,inactive: -0.009,inactive: 0.327,inactive: 0.119,inactive: -0.02
CLCN6 isoform 5 (UniProt P51797),inactive: 0.003,inactive: 0.063,inactive: -0.059,inactive: -0.062,
CMPK2 (UniProt Q5EBM0),inactive: 0.008,inactive: 0.091,inactive: -0.024,inactive: 0.039,inactive: -0.098
CINP isoform 3 (UniProt Q9BW66),inactive: -0.016,inactive: -0.042,inactive: 0.039,inactive: -0.157,inactive: -0.145
CHD8 (UniProt Q9HCK8),inactive: 0.019,inactive: 0.01,inactive: -0.08,inactive: 0.022,inactive: 0
CLUAP1 (UniProt I3L2E1),inactive: -0.012,inactive: 0.079,inactive: 0.06,,
CHIC2 (UniProt Q9UKJ5),inactive: -0.073,inactive: 0.154,inactive: -0.033,inactive: -0.014,inactive: -0.012

# An excerpt of these results, as tab-separated lines.
Target	log2 fold change [1]	log2 fold change [2]	log2 fold change [3]	log2 fold change [4]	log2 fold change [5]
CLPB isoform 2 (UniProt Q9H078)	inactive: -0.031	inactive: -0.012	inactive: 0	inactive: 0.094	inactive: 0.079
CHD4 isoform 2 (UniProt Q14839)	inactive: 0	inactive: 0.003	inactive: 0.029	inactive: 0.021	inactive: 0.009

# — the supplement of paper PMC10849652
